Several values for one entry are separate records, joined by “and”; a condition that tells them apart may be missing. Equal values may be shown once. Where a name gives a salt, the structure may show the parent alone. ± gives the standard deviation of the averaged measurements. The list shows a part of the results. Repeats are few or missing, and single values can be far off.
System: RAW 264.7
Assay: cell viability (MTT) relative to vehicle control; higher = more viable cells
Conditions: stimulus: HMGB1 5 ug/ml, 18 h
[1] = compound concentration: 1 ug/ml

Structure (SMILES) | cell viability (compound concentration: 3 uM) | cell viability [1] [%]
O=NN(CCCl)C(=O)NCCCl | 98.7 ± 6.7% | –
O=NN(CCCl)C(=O)NCCCl [Carmustine] | 97.3% | –
CCOC(=O)c1ncn2c1CN(C)C(=O)c1cc(F)ccc1-2 | 98.1% and 110% | –
CCOC(=O)c1ncn2c1CN(C)C(=O)c1cc(F)ccc1-2 [Flumazenil] | 105 ± 2.8% | –
COc1cc(/C=C/c2ccc(O)cc2)cc(OC)c1 | 90% | –
NCC(O)(CS(=O)(=O)O)c1ccc(Cl)cc1 (configuration not stated) [2-Hydroxysaclofen] | 99.5% | –
CC[C@H](NC(=O)c1c(C)c(-c2ccccc2)nc2ccccc12)c1ccccc1 | 114% | –
COc1ccc(-c2oc3ccc(C)cc3c(=O)c2O)cc1OC [3',4'-Dimethoxy-3-hydroxy-6-methylflavone] | – | 84.9
CC(C(=O)O)c1cccc(C(=O)c2ccccc2)c1 (configuration not stated) | 110% | –
CC(C(=O)O)c1cccc(C(=O)c2ccccc2)c1 (configuration not stated) [Ketoprofen] | 102 ± 8.8% | –
N[C@@H](CSCC(=O)O)C(=O)O [S-Carboxymethyl-L-cysteine] | – | 99.4
Nc1nc(N)c2nc(CNc3ccc(C(=O)N[C@@H](CCC(=O)O)C(=O)O)cc3)cnc2n1 | 111% | –
Nc1nc(N)c2nc(CNc3ccc(C(=O)N[C@@H](CCC(=O)O)C(=O)O)cc3)cnc2n1 [Aminopterin] | 88.2% | –
O=C1O/C(=C/Br)CCC1c1cccc2ccccc12 (configuration not stated) [Bromoenol lactone] | 64.8% | –
Cc1occc(=O)c1O | 96.7% | –
C#C[C@]1(O)CC[C@H]2[C@@H]3CCc4cc(O)ccc4[C@H]3CC[C@@]21C | 112% and 100% | –
C#C[C@]1(O)CC[C@H]2[C@@H]3CCc4cc(O)ccc4[C@H]3CC[C@@]21C [Ethinylestradiol] | 109% | –
CCCCN(CCCC)CCC(O)c1cc2c(Cl)cc(Cl)cc2c2cc(C(F)(F)F)ccc12 (configuration not stated) [Halofantrine hydrochloride] | 81.1% | –
NC(CCCP(=O)(O)O)C(=O)O (stereo not drawn) [D(-)-2-Amino-5-phosphonopentanoic acid] | 98.1% | –
CCOc1cc(CC(=O)N[C@@H](CC(C)C)c2ccccc2N2CCCCC2)ccc1C(=O)O | 100 ± 18% | –
CCOc1cc(CC(=O)N[C@@H](CC(C)C)c2ccccc2N2CCCCC2)ccc1C(=O)O [Repaglinide] | 88.1% | –
CCOC(=O)C1=C(C)NC(C)=C(C(=O)OCC)C1c1ccccc1/C=C/C(=O)OC(C)(C)C | 99.3% | –

Structure (SMILES) | cell viability (compound concentration: 3 uM) | cell viability [1] [%]
CCOC(=O)C1=C(C)NC(C)=C(C(=O)OCC)C1c1ccccc1/C=C/C(=O)OC(C)(C)C [Lacidipine] | 108 ± 2.4% | –
CO[C@H]1O[C@H](CO)C(O[C@@H]2OC(C(=O)O)[C@@H](O[C@H]3O[C@H](COS(=O)(=O)O)C(O[C@@H]4OC(C(=O)O)[C@@H](O[C@H]5O[C@H](CO)C(O[C@@H]6OC(C(=O)O)[C@@H](O[C@H]7O[C@H](COS(=O)(=O)O)C(O[C@@H]8OC(C(=O)O)=C[C@H](O)C8OS(=O)(=O)O)[C@H](O)[C@H]7NC(C)=O)[C@H](O)[C@H]6O)[C@H](O)[C@H]5NC(C)=O)[C@H](O)[C@H]4O)[C@H](O)[C@H]3NC(C)=O)[C@H](O)[C@H]2O)[C@H](O)[C@H]1NC(C)=O (some centres not stated) | 113% | –
COc1ccc(C(=O)CC(=O)c2ccc(C(C)(C)C)cc2)cc1 | 108% | –
COc1ccc(C(=O)c2ccccc2)c(O)c1 [Oxybenzone] | 103% | –
COc1ccc(C(=O)c2ccccc2)c(O)c1 | 103% | –
COc1c(N2C[C@@H]3CCCN[C@@H]3C2)c(F)cc2c(=O)c(C(=O)O)cn(C3CC3)c12 [Moxifloxacin] | 138% | –
COc1c(N2C[C@@H]3CCCN[C@@H]3C2)c(F)cc2c(=O)c(C(=O)O)cn(C3CC3)c12 | 92.6% and 105% | –
CC1(C)CCC[C@]2(C)[C@H]3CC(=O)O[C@]3(C)CC[C@@H]12 [(3aR)-(+)-Sclareolide] | – | 96.8
CC(=O)OCC(=O)[C@@]1(O)[C@H](C)C[C@H]2[C@@H]3CCC4=CC(=O)C=C[C@]4(C)[C@@]3(F)[C@@H](O)C[C@@]21C [dexamethasone 21-acetate] | – | 104
CC(=O)OCC(=O)[C@@]1(O)[C@H](C)C[C@H]2[C@@H]3CCC4=CC(=O)C=C[C@]4(C)[C@@]3(F)[C@@H](O)C[C@@]21C [Dexamethasone acetate] | 100% | –
CC(=O)OCC(=O)[C@@]1(O)[C@H](C)C[C@H]2[C@@H]3CCC4=CC(=O)C=C[C@]4(C)[C@@]3(F)[C@@H](O)C[C@@]21C | 107% | –
COc1ncnc(NS(=O)(=O)c2ccc(N)cc2)c1OC | 112% | –
COc1ncnc(NS(=O)(=O)c2ccc(N)cc2)c1OC [Sulfadoxine] | 103 ± 14% | –
CC(C)(C)NC(=O)[C@@H]1C[C@@H]2CCCC[C@@H]2CN1C[C@@H](O)[C@H](Cc1ccccc1)NC(=O)[C@H](CC(N)=O)NC(=O)c1ccc2ccccc2n1 | 99.7% | –
CC(C)(C)NC(=O)[C@@H]1C[C@@H]2CCCC[C@@H]2CN1C[C@@H](O)[C@H](Cc1ccccc1)NC(=O)[C@H](CC(N)=O)NC(=O)c1ccc2ccccc2n1 [Saquinavir mesylate] | 106% | –
COc1ccc2[nH]c([S@@+]([O-])Cc3ncc(C)c(OC)c3C)nc2c1 [Esomeprazole] | 100% | –
COc1ccc2[nH]c([S@@+]([O-])Cc3ncc(C)c(OC)c3C)nc2c1 [Esomeprazole magnesium dihydrate] | 109% | –
CC(C)NCC(O)c1ccc(O)c(O)c1 (stereo not drawn) [S(+)-Isoproterenol (+)-bitartrate] | 98.6% | –
CC(C)NCC(O)c1ccc(O)c(O)c1 (configuration not stated) | 96.8% | –
CCCCCN(CCCCC)C(=O)C(CCC(=O)O)NC(=O)c1ccc(Cl)c(Cl)c1 (configuration not stated) [Lorglumide] | 110% | –
CCCCCN(CCCCC)C(=O)C(CCC(=O)O)NC(=O)c1ccc(Cl)c(Cl)c1 (configuration not stated) [Lorglumide sodium salt] | 106% | –
CCCCCN(CCCCC)C(=O)C(CCC(=O)O)NC(=O)c1ccc(Cl)c(Cl)c1 (configuration not stated) [Lorglumide sodium] | 104% | –

4 entries picked at random from those above:
Structure (SMILES) | cell viability (compound concentration: 3 uM) | cell viability [1] [%]
CC(C)(C)NC(=O)[C@@H]1C[C@@H]2CCCC[C@@H]2CN1C[C@@H](O)[C@H](Cc1ccccc1)NC(=O)[C@H](CC(N)=O)NC(=O)c1ccc2ccccc2n1 [Saquinavir mesylate] | 106% | –
COc1c(N2C[C@@H]3CCCN[C@@H]3C2)c(F)cc2c(=O)c(C(=O)O)cn(C3CC3)c12 | 92.6% and 105% | –
O=NN(CCCl)C(=O)NCCCl [Carmustine] | 97.3% | –
C#C[C@]1(O)CC[C@H]2[C@@H]3CCc4cc(O)ccc4[C@H]3CC[C@@]21C [Ethinylestradiol] | 109% | –

Following part.

Structure (SMILES) | cell viability (compound concentration: 3 uM) | cell viability [1] [%]
CCCCCN(CCCCC)C(=O)C(CCC(=O)O)NC(=O)c1ccc(Cl)c(Cl)c1 (configuration not stated) | 108% | –
Nc1nc2c(ncn2COCCO)c(=O)[nH]1 | 118 ± 25% | –
Nc1nc2c(ncn2COCCO)c(=O)[nH]1 [Acycloguanosine] | 91% | –
Nc1nc2c(ncn2COCCO)c(=O)[nH]1 [Acyclovir] | 91.2 ± 2.1% | –
NCCSSCCN [Cystamine dihydrochloride] | 99.4% | –
CC(C)CC(N)C(=O)O (racemic) [DL-Leucine] | – | 107
Cc1cc(NC2CCCCC2)nc(-n2nc(C)cc2C)n1 | 98.4% | –
OC(CCN1CCCCC1)(c1ccccc1)c1ccccc1 [Pridinol methanesulfonate salt] | 116% | –
OC(CCN1CCCCC1)(c1ccccc1)c1ccccc1 | 110% | –
CCCCC(=O)N(Cc1ccc(-c2ccccc2-c2nnn[nH]2)cc1)[C@H](C(=O)O)C(C)C | 104 ± 15% | –
CCN(CC)CCNC(=O)c1cc(Br)c(N)cc1OC [Bromopride] | 108% | –
CCN(CC)CCNC(=O)c1cc(Br)c(N)cc1OC | 111% | –
CCc1ccc(/C=C2/SC(=S)NC2=O)cc1 | 86.7% | –
CC1=CC(=O)[C@H]2C[C@@H]1C2(C)C [L(-)-Verbenone] | – | 104
C=CCNc1ncnc2ccc(Br)cc12 | 104% | –
O=C(O)C(=O)Cc1ccccc1 [Phenylpyruvic acid] | – | 92.9
CC(C)NNC(=O)c1ccncc1 | 103 ± 9.2% | –
CC(C)NNC(=O)c1ccncc1 [Iproniazid] | 103% | –
CC(C)NNC(=O)c1ccncc1 [Iproniazid phosphate] | 104% | –
CC(C)NNC(=O)c1ccncc1 [Iproniazide phosphate] | 106% | –
O=c1cc(-c2ccc(O)c(O)c2)oc2cccc(O)c12 | – | 77
O=C(O)c1cc(=O)c2ccccc2[nH]1 [Kynurenic Acid] | – | 95.1

Structure (SMILES) | cell viability (compound concentration: 3 uM) | cell viability [1] [%]
O=C(O)c1cc(=O)c2ccccc2[nH]1 [Kynurenic acid] | 96.5% | –
CCOC(N)=O | 113 ± 24% | –
O=c1cc(N2CCOCC2)oc2c(-c3ccccc3)cccc12 [LY-294,002 hydrochloride] | 95.3% | –
O=C1c2cccc(O)c2C(=O)c2c(O)cccc21 | 111% | –
CCCCc1ncc(/C=C(\Cc2cccs2)C(=O)O)n1Cc1ccc(C(=O)O)cc1 [Eprosartan] | 92% | –
N[C@@H](Cc1ccc(O)c(O)c1)C(=O)O [Levodopa] | 98.3 ± 8.2% | –
N[C@@H](Cc1ccc(O)c(O)c1)C(=O)O [L-3,4-Dihydroxyphenylalanine] | 99.9% | –
N[C@@H](Cc1ccc(O)c(O)c1)C(=O)O | 110% | –
CN1CCN2c3ccccc3Cc3ccccc3C2C1 (configuration not stated) [Mianserin] | 115% | –
CN1CCN2c3ccccc3Cc3ccccc3C2C1 (configuration not stated) [Mianserin hydrochloride] | 103% | –
CN1CCN2c3ccccc3Cc3ccccc3C2C1 (configuration not stated) | 101% | –
CN1CCN2c3ccccc3Cc3ccccc3C2C1 (configuration not stated) [Mianserine hydrochloride] | 100% | –
CCN1CCCC1CNC(=O)c1cc(S(N)(=O)=O)ccc1OC (single isomer, unassigned; (-)) [(-)-Sulpiride] | 116% | –
CCC=CCC1C(=O)CCC1CC(=O)O (racemic) [(+/-)-Jasmonic acid] | – | 104
O=C(O)CCC(=O)c1ccc(-c2ccccc2)cc1 [Fenbufen] | 106 ± 16% | –
O=C(O)CCC(=O)c1ccc(-c2ccccc2)cc1 | 107% | –
O=C(O)c1coc2ccc(F)cc2c1=O [6-Fluorochromone-3-carboxylic acid] | – | 112
Nc1ncn(C2OC(CO)C(O)C2O)c(=O)n1 (configuration not stated) [Azacytidine-5] | 56.5% | –
C[N+](C)(C)CCOC(N)=O [Carbachol] | 111 ± 8.7% | –
C[N+](C)(C)CCOC(N)=O | 106% | –
C[N+](C)(C)CCOC(N)=O [Carbamylcholine] | 117% | –

From the supplement of paper PMC3682954
